Data taken from PubChem BioAssay AID504834 (National Center for Advancing Translational Sciences (NCATS), 2011).
Hit rate of the full screen: of about 320,000 compounds, about 22,000 (6.9%) were called active. Inconclusive means that the source gave no clear call. Such entries were picked first, then a sample of the others. Calls follow the shape of the dose curve; as a rule, active = well fitted inhibition curve with a large enough effect; inconclusive = small, poorly fitted or top-dose-only effect, or another doubt; inactive = no such curve, though single readings can be large or run the other way. Potencies of inconclusive entries are doubtful fits and often do not repeat.

Experiment: Primary qHTS for delayed death inhibitors of the malarial parasite plastid, 96 hour incubation
Settings: P. falciparum luciferase reporter growth; series mostly up to 28.7 µM
Procedure, shortened: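 Erythrocytes infected with luciferase-expressing P. falciparum were dispensed at 2% hematocrit and 0.05% parasitemia (final), then incubated with compounds 96 hours at 37 C in 5% CO2. Luminescence after detection reagent addition reported growth.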
Potency is read from the fitted curve at half-maximal effect.

SMILES | Potency
CCCCNC(=O)CN1C(=O)COc2ccc(S(=O)(=O)N3CCCCCC3)cc21 | inconclusive: 0.738 µM [inhibitor, partial curve, poor fit]
CCc1ccccc1NS(=O)(=O)c1cc2c(cc1C)n(C)c(=O)c(=O)n2C | inconclusive: 18.5 µM [inhibitor, single point]
CC1(C)C2CCC1(C)C(NC(=O)CCN1CCCCC1)C2 (stereo unspecified) | active: 0.0928 µM
CCOC(=O)CNC(=O)c1cc(OC)cc(OC)c1 | active: 0.928 µM
Cc1occc1C(=O)N1CCN(c2ccc([N+](=O)[O-])cc2)CC1 | inconclusive: 16.5 µM [inhibitor, partial curve, poor fit]
Oc1ccc(C[C@@H]2CNC(=S)N2CCCCC2CCCCC2)cc1 | inconclusive: 18.5 µM [inhibitor, partial curve, poor fit]
COc1ccc(Cn2nc(C)cc2C)cc1OC | inconclusive: 8.28 µM [inhibitor, single point]
NS(=O)(=O)c1ccc(CCNC(=O)c2cnc(Cl)c(Cl)c2)cc1 | inactive
Cc1ccc(-c2nn(-c3ccccc3)cc2CNCc2ccccc2)cc1 | inactive
O=C(C[n+]1ccc(Cc2ccccc2)cc1)Nc1ccccc1 | inconclusive: 1.17 µM [inhibitor, full curve, poor fit]
Cc1[nH]c(C)c(S(=O)(=O)NCc2ccc(F)cc2)c1C(=O)N1CCCC1 | inconclusive: 10.4 µM [inhibitor, single point]
O=C(CSc1nnc2ccc(-c3ccc(Br)cc3)nn12)NCC1CCCO1 (stereo unspecified) | inconclusive: 14.7 µM [inhibitor, single point]
O=C(CSc1nc2c(cnn2-c2ccc(F)cc2)c(=O)[nH]1)N1N=C(c2cccs2)CC1c1ccc(F)cc1 (stereo unspecified) | active: 9.28 µM
O=C(Nc1cc(Cl)ccc1N1CCOCC1)c1cc2ccccc2o1 | inactive
Cc1ccc(-n2c(O)c(C=Nc3ccc(S(=O)(=O)N(C)C)cc3)c(=O)[nH]c2=O)cc1 | active: 2.08 µM
COc1ccc(Cl)cc1NC(=O)CN(C)C(=O)c1sc2ccccc2c1Cl | inconclusive: 18.5 µM [inhibitor, single point]
Cc1c(Nc2nc(C(F)(F)F)nc3ccccc23)c(=O)n(-c2ccccc2)n1C | inconclusive: 8.28 µM [inhibitor, partial curve]
COc1ccc(NC(=O)c2oc3ccccc3c2NC(=O)C2CC2)cc1OC | active: 11.7 µM
CCN(CCCNC(=O)CN(C)S(=O)(=O)c1cccc2nsnc12)c1ccccc1 | active: 11.7 µM
COc1ccc(N2CCN(C(=O)[C@@H]3CCCN3C3=NS(=O)(=O)c4ccccc43)CC2)cc1 | inactive
O=C1NC(=Nc2ccc(Cl)cc2)SC1Cc1cccc(Cl)c1Cl (stereo unspecified) | inconclusive: 18.5 µM [inhibitor, single point]
O=C(c1cccc(Cl)c1)C1CCCN(Cc2ccon2)C1 (stereo unspecified) | inactive
CCn1c(=O)c(C(=O)CN2CCN(S(=O)(=O)c3ccc(C)cc3C)CC2)c(N)n(Cc2ccccc2)c1=O | active: 8.28 µM
COc1ccc(CC(=O)Nc2ccccc2N2CCCCC2)cc1OC | inconclusive: 2.33 µM [inhibitor, full curve]

4 of the compounds above, with each value named.
CCc1ccccc1NS(=O)(=O)c1cc2c(cc1C)n(C)c(=O)c(=O)n2C
  Potency: inconclusive: 18.5 µM [inhibitor, single point]
CC1(C)C2CCC1(C)C(NC(=O)CCN1CCCCC1)C2 (stereo unspecified)
  Potency: active: 0.0928 µM
O=C(C[n+]1ccc(Cc2ccccc2)cc1)Nc1ccccc1
  Potency: inconclusive: 1.17 µM [inhibitor, full curve, poor fit]
O=C(Nc1cc(Cl)ccc1N1CCOCC1)c1cc2ccccc2o1
  Potency: inactive

Later entries.

SMILES | Potency
C=CCn1nc2n(c1=O)-c1ccccc1SC2 | inactive
CCOC(=O)C1CCN(C(=O)c2c(-c3ccccc3)noc2C)CC1 | inconclusive: 11.7 µM [inhibitor, single point]
Cc1ccsc1C1C=C(c2cccc(Br)c2)Nc2ncnn21 (stereo unspecified) | active: 11.7 µM
CCCCn1c(NC(=O)c2ccco2)c(S(=O)(=O)c2ccc(C)cc2)c2nc3ccccc3nc21 | inconclusive: 18.5 µM [inhibitor, single point]
CCCCn1c(N)c(N(CC(C)C)C(=O)CSc2n[nH]c(-c3ccc(C)cc3)n2)c(=O)[nH]c1=O | inconclusive: 11.7 µM [inhibitor, single point]
COc1cc(OC)cc(C(=O)NNC(=O)CN2C(=O)NC(C)(c3ccccc3)C2=O)c1 (stereo unspecified) | inactive
CN(Cc1ccccc1)c1ccc(S(=O)(=O)N2CCC(C(=O)O)CC2)cc1[N+](=O)[O-] | inactive
Cc1cc(C(=O)Nc2nc(-c3ccccn3)cs2)ccc1[N+](=O)[O-] | inconclusive: 8.28 µM [inhibitor, single point]
COc1cc2c(cc1OC)CN(CC(=O)Nc1cccc(C)c1)CC2 | inactive
Cc1cc(Cn2nc(-c3ccccc3)cc2C(=O)NCc2cccc(C(F)(F)F)c2)on1 | inconclusive: 18.5 µM [inhibitor, single point]
S=C(Nc1cccc2ccccc12)N1CCN(c2ncccn2)CC1 | inconclusive: 0.0586 µM [inhibitor, full curve, poor fit]
COc1cccc(CC(NC(C)=O)C(=O)NC2CCN(S(=O)(=O)c3ccc(NC(C)=O)cc3)CC2)c1 (stereo unspecified) | inactive
O=C(NCc1cccc(Cl)c1)C1CCCN(c2ncnc3c2nc2n3CCCCC2)C1 (stereo unspecified) | inconclusive: 11.7 µM [inhibitor, single point]
COc1ccccc1NC(=O)C(CC=C(Cl)Cl)C(C)=O (stereo unspecified) | inconclusive: 4.15 µM [inhibitor, partial curve, poor fit]
O=c1/c(=C\c2cccnc2)sc2nc3ccccc3n12 | inactive
CCc1ccc(OCC(=O)NCCc2ccc3c(c2)OCCO3)cc1 | inactive
O=C1NC(=O)C(CCc2ccncc2)(Cc2ccc3c(c2)OCO3)C(=O)N1CCc1ccccc1 (stereo unspecified) | inconclusive: 9.28 µM [inhibitor, partial curve, poor fit]
O=C(O)C(O)(c1ccccc1)C1CCCCC1 (stereo unspecified) | inconclusive: 18.5 µM [inhibitor, single point]
Cc1ccc(NS(=O)(=O)c2cccs2)nc1 | inconclusive: 4.65 µM [inhibitor, full curve, poor fit]
O=c1c2ccccc2nc(-c2ccccc2)n1Cc1ccco1 | inconclusive: 5.22 µM [inhibitor, partial curve, poor fit]
CCCC(=O)Nc1cc(S(=O)(=O)N2CCCCC2)ccc1N1CCOCC1 | inconclusive: 8.28 µM [inhibitor, partial curve, poor fit]
Cn1c(=O)c2c(nc(OCc3ccc4c(c3)OCO4)n2Cc2ccccc2Cl)n(C)c1=O | inconclusive: 0.0329 µM [inhibitor, full curve, poor fit]
N#C/C(=C(\O)CCl)c1nnc2n1CCCCC2 | inconclusive: 1.04 µM [inhibitor, partial curve, poor fit]
Cc1c(/C(O)=C2\C(=O)C(=O)N(CCN(C)C)C2c2cccs2)cnn1-c1ccccc1 (stereo unspecified) | active: 13.1 µM

SMILES | Potency
COc1ccc(C2=NN(C(=O)c3ccc(Cl)c([N+](=O)[O-])c3)C(c3ccccc3)C2)cc1 (stereo unspecified) | inactive
OCCN(Cc1ccccc1)CC(O)COc1ccc(-c2ccccc2)cc1 (stereo unspecified) | inconclusive: 1.17 µM [inhibitor, full curve, poor fit]
Cc1ccccc1C(=O)OCCCN=C1NS(=O)(=O)c2ccccc21 | inactive
C/C(=N\NC(=O)C1CC1)c1ccc(OC(F)F)cc1OC(F)F | inconclusive: 9.28 µM [inhibitor, single point]
O=C(NCCOCCNC(=O)OCc1ccccc1)OCc1ccccc1 | inactive
COC(=O)c1ccccc1NC(=O)NCc1ccncc1 | active: 13.1 µM
CCOC(=O)N1CCN(C(=O)C(C)n2nc(C)n3c(cc4sccc43)c2=O)CC1 (stereo unspecified) | inconclusive: 2.33 µM [inhibitor, partial curve, poor fit]
C(=N\Nc1nc(Nc2ccccc2)nc(Nc2ccccc2)n1)/c1ccncc1 | inactive
CC(=O)N1CCC(C(=O)N2CCN(S(=O)(=O)c3ccc(F)cc3)CC2)CC1 | inactive
N#Cc1c(Nc2ccccc2)c(/C=N/N=C/c2ccccc2)c[nH]c1=O | inconclusive: 18.5 µM [inhibitor, single point]
COc1ccc(C#Cc2ccc3c(=O)c4ccccc4n(C)c3c2)cc1 | active: 8.28 µM
C=CCSc1nnc(-c2nnc(SCC=C)n2CC)n1CC | active: 11.7 µM
COc1ccc2oc3cc(C)[n+]([O-])c(-c4ccc(Cl)cc4)c3c2c1 | inconclusive: 10.4 µM [inhibitor, single point]
COc1ccc(OC)c(NC(=O)CSCC(=O)O)c1 | inconclusive: 18.5 µM [inhibitor, single point]
Cc1ccc(C2C(C#N)=C(N)Oc3cc4c(cc32)OCO4)cc1 (stereo unspecified) | inconclusive: 4.15 µM [inhibitor, single point]
CCOC(=O)C1CCCN(Cc2nc3ccc([N+](=O)[O-])cc3c(=O)n2-c2ccc(OC)cc2OC)C1 (stereo unspecified) | inconclusive: 3.29 µM [inhibitor, full curve]
Cc1cccc(C(=O)NC(=S)N(C)C2CCCCC2)c1 | inactive
COc1ccc2[nH]c(C(=O)NCCCN3CCCC3=O)c(C)c2c1 | inactive
CCCN(CC(=O)Nc1cc(Cl)ccc1Cl)C(=O)CN1C(=O)C2CCCCC2C1=O (stereo unspecified) | inconclusive: 18.5 µM [inhibitor, single point]
COc1ccc(-c2oc(=O)c3cc(OC)c(OC)cc3c2-c2cc(F)cc(OC)c2)cc1 | active: 2.94 µM
CCC[C@@H]1CCCC/C=C\CCCC(=O)OCCN1C(=O)OC(C)(C)C | inconclusive: 18.5 µM [inhibitor, single point]
CCCN(CC1CC1)C(=O)COC(=O)c1oc2c(F)cccc2c1C | inconclusive: 13.1 µM [inhibitor, single point]
Cc1ccc(-c2nc3ncccc3o2)cc1NC(=O)c1ccc([N+](=O)[O-])o1 | inactive
